From patent US20180128837A1
These are yes or no findings as the source states them, for the method shown. Binding can be weak; no strength is given.

Assays:
[1] = target: T1, ST2/T1 receptor on a mouse mast cell line (wild type mast cells, WTMC) (mouse) (UniProt P14719); assay: competition with anti-T1/ST2 antibody on wild type mast cells (WTMC)
T1 sequence: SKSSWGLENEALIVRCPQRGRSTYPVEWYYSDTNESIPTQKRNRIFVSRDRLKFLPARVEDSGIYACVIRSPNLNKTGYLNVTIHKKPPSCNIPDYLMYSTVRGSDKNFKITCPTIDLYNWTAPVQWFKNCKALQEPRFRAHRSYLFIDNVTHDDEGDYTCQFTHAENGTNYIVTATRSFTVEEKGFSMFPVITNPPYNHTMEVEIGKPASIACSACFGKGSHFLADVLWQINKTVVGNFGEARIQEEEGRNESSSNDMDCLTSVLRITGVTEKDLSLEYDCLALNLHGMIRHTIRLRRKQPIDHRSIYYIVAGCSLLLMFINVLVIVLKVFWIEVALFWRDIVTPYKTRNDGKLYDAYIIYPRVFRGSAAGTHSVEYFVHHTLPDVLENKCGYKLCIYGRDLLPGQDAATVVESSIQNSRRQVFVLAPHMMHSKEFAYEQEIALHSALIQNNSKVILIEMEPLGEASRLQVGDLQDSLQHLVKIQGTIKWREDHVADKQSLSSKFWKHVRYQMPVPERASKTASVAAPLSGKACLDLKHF

[2] = target: T1, ST2/T1 receptor on a mouse mast cell line (wild type mast cells, WTMC) (mouse); assay: flow cytometry, competition with the ST2/T1-specific monoclonal antibody on a mouse mast cell line

binding [1]: binds
binding [2]: binds
Substance: IL-33 protein (species not stated in the mast cell competition experiment) (ligand)
